# According to patent US4471131A, “Novel silyl esters of N-phosphonomethylglycine” (Monsanto Company, priority 1983, dated 1984):
# Several values for one entry are separate records, joined by “and”; a condition that tells them apart may be missing. Equal entries are not always repeated. At least one read-out could not be matched to a standard name with certainty.
# Tested on: Large Crabgrass
# Assay: post-emergence herbicidal activity, greenhouse
# Type: in vivo
# Conditions: Table III; 2 WAT; 1.1 kg/h; Hydrate
# Excerpt: A good grade of top soil is placed in aluminum pans having holes in the bottom and compacted to a depth of 0.95 to 1.27 cm. from the top of the pan. A predetermined number of seeds of each of several dicotyledonous and moncotyledonous annual plant species and/or vegetative propagules for the perennial plant species were placed on the soil and pressed into the soil surface. The seeds and/or vegetative propagules are covered with soil and leveled. The pans are then placed on a sand bench in the greenhouse and watered from below as needed. After the plants reach the desired age (two to three weeks), each pan, except for the control pans, is removed individually to a spraying chamber and sprayed by means of an atomizer at the rates noted. In the spray solution is an amount of an emulsifying agent mixture to give a spray solution or suspension which contains about 0.4% by weight of the emulsifier. The spray solution or suspension contains a sufficient amount of the candidate chemical in order to give application rates corresponding to those set forth in the tables. The pans were returned to the greenhouse and watered as before and the injury to the plants as compared to the control is observed at approximately two and four weeks and the results recorded. In the tables, WAT means "weeks after treatment."
# The post-emergent herbicidal activity index used in Tables II and III is as follows: […]
compound,measurement,value
"CC(C)(C)[Si](C)(C)OP(=O)(CNCC(=O)OCCc1ccccc1)O[Si](C)(C)C(C)(C)C [Ex. 10, Glycine, N--((Bis[((1,1-Dimethylethyl)Dimethylsilyl)Oxy]Phosphinyl)Methyl)-,2-Phenylethyl Ester Hydrate]",Plant Response Index (T),3 (75-99% inhibition) and 2 (50-74% inhibition)
